These are yes or no findings as the source states them, for the method shown. In cells and extracts the contact can be indirect.
Molecular target: LIM domain and actin binding 1 (LIMA1) (human (endogenous in Huh7)), Q9UHB6
Assay: co-IP; endogenous proteins of Huh7 cells lysed with NP-40 and 1% PMSF; Pierce Magnetic IP/Co-IP Kit; western blotting
Conditions: remark: other sources report otherwise

binding: no binding
B1: PINK1, Q9BXM7 78-581 (protein)
chain: AARLQRQFVVRAWGCAGPCGRAVFLAFGLGLGLIEEKQAESRRAVSACQEIQAIFTQKSKPGPDPLDTRRLQGFRLEEYLIGQSIGKGCSAAVYEATMPTLPQNLEVTKSTGLLPGRGPGTSAPGEGQERAPGAPAFPLAIKMMWNISAGSSSEAILNTMSQELVPASRVALAGEYGAVTYRKSKRGPKQLAPHPNIIRVLRAFTSSVPLLPGALVDYPDVLPSRLHPEGLGHGRTLFLVMKNYPCTLRQYLCVNTPSPRLAAMMLLQLLEGVDHLVQQGIAHRDLKSDNILVELDPDGCPWLVIADFGCCLADESIGLQLPFSSWYVDRGGNGCLMAPEVSTARPGPRAVIDYSKADAWAVGAIAYEIFGLVNPFYGQGKAHLESRSYQEAQLPALPESVPPDVRQLVRALLQREASKRPSARVAANVLHLSLWGEHILALKNLKLDKMVGWLLQQSAATLLANRLTEKCCVETKMKMLFLANLECETLCQAALLLCSWRAAL
